# Assay results published in PMC8944596, “Determination of the Relationships between the Chemical Structure and Antimicrobial Activity of a GAPDH-Related Fish Antimicrobial Peptide and Analogs Thereof” (Antibiotics, 2022).
# Experiment: Circular dichroism, secondary structure contents (CONTIN)
# Type: physicochemical
# Settings: CD, 25 °C; for Secondary Structure Contents, Unrd (unordered, random coils), PB (10 mM) / Secondary Structure Contents, α-Helix, PB (10 mM) / Secondary Structure Contents, β-Strands, PB (10 mM): 10 mM PB pH 7.2, peptide 0.5 mg/mL; for Secondary Structure Contents, Unrd, TFE 25% / Secondary Structure Contents, α-Helix, TFE 25% / Secondary Structure Contents, β-Strands, TFE 25%: 25% (v/v) TFE/PB; for Secondary Structure Contents, Unrd, TFE 25% / Secondary Structure Contents, α-Helix, TFE 25% / Secondary Structure Contents, β-Strands, TFE 25% / Secondary Structure Contents, Unrd, TFE 50% / Secondary Structure Contents, α-Helix, TFE 50% / Secondary Structure Contents, β-Strands, TFE 50% / Secondary Structure Contents, Unrd, TFE 75% / Secondary Structure Contents, α-Helix, TFE 75% / Secondary Structure Contents, β-Strands, TFE 75%: 0.5 mg/mL; for Secondary Structure Contents, Unrd, TFE 50% / Secondary Structure Contents, α-Helix, TFE 50% / Secondary Structure Contents, β-Strands, TFE 50%: 50% (v/v) TFE/PB; for Secondary Structure Contents, Unrd, TFE 75% / Secondary Structure Contents, α-Helix, TFE 75% / Secondary Structure Contents, β-Strands, TFE 75%: 75% (v/v) TFE/PB
Substance,"Secondary Structure Contents, Unrd (unordered, random coils), PB (10 mM) [%]","Secondary Structure Contents, α-Helix, PB (10 mM) [%]","Secondary Structure Contents, β-Strands, PB (10 mM) [%]","Secondary Structure Contents, Unrd, TFE 25% [%]","Secondary Structure Contents, α-Helix, TFE 25% [%]","Secondary Structure Contents, β-Strands, TFE 25% [%]","Secondary Structure Contents, Unrd, TFE 50% [%]","Secondary Structure Contents, α-Helix, TFE 50% [%]","Secondary Structure Contents, β-Strands, TFE 50% [%]","Secondary Structure Contents, Unrd, TFE 75% [%]","Secondary Structure Contents, α-Helix, TFE 75% [%]","Secondary Structure Contents, β-Strands, TFE 75% [%]"
Analog 2: N-terminal segment of SJGAP (VKVGINGFGRIG),35,6,44,33,5,40,34,4,41,35,5,38
Analog 3: Middle segment of SJGAP (IGRLVTRAAFHG),39,5,33,35,6,37,30,15,33,31,18,29
HGKKVEIVAIND [Analog 4],39,6,32,37,5,32,35,4,39,33,6,34

# Ends that are not written are not given here.
